The results in this text go back to patent US20110104143A1.

By UniProt entry, the sequences of proteins in these tests, tags left out. Where a name states a change or a piece, a line headed by the entry shows the natural chain unless it says otherwise. Residues count along the entry.
UniProt O14763, residues 56-440: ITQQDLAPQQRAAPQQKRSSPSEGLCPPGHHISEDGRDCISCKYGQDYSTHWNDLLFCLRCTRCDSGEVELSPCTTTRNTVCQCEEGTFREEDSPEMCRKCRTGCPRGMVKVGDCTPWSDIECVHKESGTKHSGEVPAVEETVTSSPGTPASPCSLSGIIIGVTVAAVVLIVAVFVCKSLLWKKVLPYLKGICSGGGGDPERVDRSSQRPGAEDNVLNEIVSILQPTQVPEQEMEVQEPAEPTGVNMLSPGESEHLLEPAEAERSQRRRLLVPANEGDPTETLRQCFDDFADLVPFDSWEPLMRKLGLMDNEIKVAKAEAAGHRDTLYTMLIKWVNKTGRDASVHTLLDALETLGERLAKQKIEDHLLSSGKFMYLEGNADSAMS
UniProt O00571: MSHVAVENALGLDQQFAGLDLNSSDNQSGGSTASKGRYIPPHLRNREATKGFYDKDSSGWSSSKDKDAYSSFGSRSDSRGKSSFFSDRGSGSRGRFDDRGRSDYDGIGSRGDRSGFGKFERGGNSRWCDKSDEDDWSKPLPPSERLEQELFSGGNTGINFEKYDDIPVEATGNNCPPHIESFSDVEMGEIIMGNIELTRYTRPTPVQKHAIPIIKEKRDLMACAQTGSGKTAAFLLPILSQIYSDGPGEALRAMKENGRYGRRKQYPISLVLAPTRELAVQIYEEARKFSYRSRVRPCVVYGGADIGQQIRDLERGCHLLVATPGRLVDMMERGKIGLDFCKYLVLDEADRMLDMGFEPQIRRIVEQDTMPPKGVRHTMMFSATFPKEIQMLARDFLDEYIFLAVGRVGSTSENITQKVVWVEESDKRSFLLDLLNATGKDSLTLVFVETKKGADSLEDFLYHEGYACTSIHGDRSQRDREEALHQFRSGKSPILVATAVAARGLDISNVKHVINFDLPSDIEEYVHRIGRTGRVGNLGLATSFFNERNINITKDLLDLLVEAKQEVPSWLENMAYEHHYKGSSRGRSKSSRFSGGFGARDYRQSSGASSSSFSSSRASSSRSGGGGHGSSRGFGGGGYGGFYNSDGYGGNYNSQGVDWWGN
UniProt Q13158: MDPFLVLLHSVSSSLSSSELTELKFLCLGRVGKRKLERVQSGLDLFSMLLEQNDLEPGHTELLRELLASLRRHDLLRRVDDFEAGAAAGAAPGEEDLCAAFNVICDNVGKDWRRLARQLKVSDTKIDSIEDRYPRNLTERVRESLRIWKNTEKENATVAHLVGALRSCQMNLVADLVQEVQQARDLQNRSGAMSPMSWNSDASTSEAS

The target of assay [1] is human DR5 (full-length) (human) (UniProt O14763). The assay is described as follows: co-immunoprecipitation and Western blot with mouse anti-DDX3 monoclonal antibody. (In general: A western blot detects proteins with antibodies after separation by electrophoresis.)
The target is the same in assay [2]. Put plainly: DR5 co-IP, pancreatic cancer cells.
For assay [3] the target is unchanged. Put plainly: DR5 immunoprecipitation with 2B4, immunoblot and sandwich ELISA, MDA231 and UL-3C cells.
Assay [4] has the same target. Put plainly: DR5 co-immunoprecipitation and sandwich ELISA of total cell lysate. (In general: In an ELISA, binding on a coated surface is turned into a signal by an enzyme label.)
Assay [5] shares this target. The assay is described as follows: DR5 co-IP and Western blot.
For assay [6] the target is unchanged. Put plainly: Western blots of co-immunoprecipitates (FIG. 5A).
Assay [7] has the same target. Put plainly: DR5 co-immunoprecipitation and Western blot (FIG. 5A).
The target is the same in assay [8]. The assay is described as follows: co-immunoprecipitation and Western blot with anti-6-His antibody, transfected MDA231 cells.
For assay [9] the target is unchanged. Put plainly: co-immunoprecipitation using TRA-8, transfected HEK293A cells.
Assay [10] has the same target. Put plainly: co-immunoprecipitation with TRA-8 and Western blot with anti-6-His antibody, co-transfected 3T3 cells.

No constants are given. Whether binding was seen depends on the method and setting. For some of these results: Binding seen in cells or lysates may run through a third protein. Some results given as binding are weak or reduced against the parent protein; the word gives no strength.

“DDX3 (endogenous, full-length human DDX3 in tumor cell lysates) (from UniProt O00571 1-662)”: the binding entry in assay [1], in assay [2], in assay [3] and in assay [4] was “binds” each time.

With “DDX3ΔCARD (DDX3Δ151-662) (from UniProt O00571 151-662)”, the binding entry in [5] was “binds”.

Turning to FADD (from UniProt Q13158 1-208), the binding result in [6] and in assay [7] was “binds” throughout.

Regarding “His-tagged full-length DDX3 (amino acids 1-662) (from UniProt O00571 1-662)”, the binding result in assay [8], in assay [9] and in assay [10] was “binds” each time.
